Many values rest on one well or one pass, so single values are uncertain.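 All cells are established human bladder cancer lines, one of them grown from a patient-derived xenograft. Viability was read by a luminescent ATP assay as percent inhibition versus vehicle over a seven-point dilution series; the paper calls scores above 59 very active, 30–59 active, 21–29 semi-active, 9–20 low active and below 9 inactive.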
Assays:
Experiment in all cases: drug sensitivity score DSS3 (score 0-100); higher = more sensitive; extreme values may be limits of the assay
Details in all cases: culture: 3D, ultra-low attachment; treatment time: 5 days
UM-UC-15 = tested on: UM-UC-15
T-24 = tested on: T-24
5637 = tested on: 5637
TCCSUP = tested on: TCCSUP
UM-UC-5 = tested on: UM-UC-5
BC8149 = tested on: BC8149
UM-UC-12 = tested on: UM-UC-12
UM-UC-18 = tested on: UM-UC-18
SW780 = tested on: SW780
J82 = tested on: J82
SCaBER = tested on: SCaBER
UM-UC-6 = tested on: UM-UC-6
UM-UC-9 = tested on: UM-UC-9
UM-UC-17 = tested on: UM-UC-17
UM-UC-3 = tested on: UM-UC-3
UM-UC-1 = tested on: UM-UC-1
UM-UC-14 = tested on: UM-UC-14

Nc1nccc(Oc2ccc(NC(=O)c3c[nH]cc(-c4ccc(F)cc4)c3=O)cc2F)c1Cl (max dose 10000 nM)
drug sensitivity score DSS3 (UM-UC-15): 24.4
drug sensitivity score DSS3 (T-24): 0.854
drug sensitivity score DSS3 5637: 0
drug sensitivity score DSS3 (TCCSUP): 4.48
drug sensitivity score DSS3 (UM-UC-5): 0
drug sensitivity score DSS3 (BC8149): 1.53
drug sensitivity score DSS3 (UM-UC-12): 0
drug sensitivity score DSS3 (UM-UC-18): 1.31
drug sensitivity score DSS3 (SW780): 0
drug sensitivity score DSS3 (J82): 0
drug sensitivity score DSS3 (SCaBER): 0
drug sensitivity score DSS3 (UM-UC-6): 0.916
drug sensitivity score DSS3 (UM-UC-9): 0
drug sensitivity score DSS3 (UM-UC-17): 1.36
drug sensitivity score DSS3 (UM-UC-3): 2.67
drug sensitivity score DSS3 (UM-UC-1): 0

COc1cc2nccc(Oc3ccc(NC(=O)Nc4cc(C)on4)c(Cl)c3)c2cc1OC [Tivozanib (AV-951)] (max dose 10000 nM)
drug sensitivity score DSS3 (UM-UC-15): 3.11
drug sensitivity score DSS3 (T-24): 0
drug sensitivity score DSS3 5637: 0
drug sensitivity score DSS3 (TCCSUP): 0.27
drug sensitivity score DSS3 (UM-UC-5): 0
drug sensitivity score DSS3 (BC8149): 0
drug sensitivity score DSS3 (UM-UC-12): 0
drug sensitivity score DSS3 (UM-UC-18): 0
drug sensitivity score DSS3 (SW780): 8.21
drug sensitivity score DSS3 (J82): 12.6
drug sensitivity score DSS3 (SCaBER): 0
drug sensitivity score DSS3 (UM-UC-6): 0
drug sensitivity score DSS3 (UM-UC-9): 0
drug sensitivity score DSS3 (UM-UC-17): 0.378
drug sensitivity score DSS3 (UM-UC-3): 0
drug sensitivity score DSS3 (UM-UC-1): 0.977

Nc1ccc(-c2ccc3ncc4ccc(=O)n(-c5cccc(C(F)(F)F)c5)c4c3c2)cn1 [Torin 2] (max dose 10000 nM)
drug sensitivity score DSS3 (UM-UC-15): 0
drug sensitivity score DSS3 (T-24): 1.62
drug sensitivity score DSS3 5637: 43.9
drug sensitivity score DSS3 (TCCSUP): 51.8
drug sensitivity score DSS3 (UM-UC-5): 52
drug sensitivity score DSS3 (BC8149): 59.5
drug sensitivity score DSS3 (UM-UC-12): 34.9
drug sensitivity score DSS3 (UM-UC-14): 27.6
drug sensitivity score DSS3 (UM-UC-18): 52.1
drug sensitivity score DSS3 (SW780): 7.78
drug sensitivity score DSS3 (J82): 34.3
drug sensitivity score DSS3 (SCaBER): 48.1
drug sensitivity score DSS3 (UM-UC-6): 22.6
drug sensitivity score DSS3 (UM-UC-17): 29.7
drug sensitivity score DSS3 (UM-UC-3): 38.2
drug sensitivity score DSS3 (UM-UC-1): 57.2

CCn1c(-c2nonc2N)nc2c(C#CC(C)(C)O)ncc(OC[C@H]3CCCNC3)c21 (max dose 10000 nM)
drug sensitivity score DSS3 (UM-UC-15): 0
drug sensitivity score DSS3 (T-24): 1.44
drug sensitivity score DSS3 5637: 44.1
drug sensitivity score DSS3 (TCCSUP): 16.5
drug sensitivity score DSS3 (UM-UC-5): 6.51
drug sensitivity score DSS3 (BC8149): 33.9
drug sensitivity score DSS3 (UM-UC-12): 0.389
drug sensitivity score DSS3 (UM-UC-18): 0
drug sensitivity score DSS3 (SW780): 0
drug sensitivity score DSS3 (J82): 0
drug sensitivity score DSS3 (SCaBER): 38.9
drug sensitivity score DSS3 (UM-UC-6): 0
drug sensitivity score DSS3 (UM-UC-9): 8.45
drug sensitivity score DSS3 (UM-UC-17): 0
drug sensitivity score DSS3 (UM-UC-3): 7.33
drug sensitivity score DSS3 (UM-UC-1): 15.6

Cn1cncc1[C@@](N)(c1ccc(Cl)cc1)c1ccc2c(c1)c(-c1cccc(Cl)c1)cc(=O)n2C [Tipifarnib] (max dose 10000 nM)
drug sensitivity score DSS3 (UM-UC-15): 0
drug sensitivity score DSS3 (T-24): 15.6
drug sensitivity score DSS3 (TCCSUP): 8.32
drug sensitivity score DSS3 (UM-UC-5): 0.000196
drug sensitivity score DSS3 (BC8149): 0.0116
drug sensitivity score DSS3 (UM-UC-12): 0.311
drug sensitivity score DSS3 (UM-UC-14): 1.66
drug sensitivity score DSS3 (UM-UC-18): 4.24
drug sensitivity score DSS3 (SW780): 0
drug sensitivity score DSS3 (J82): 0
drug sensitivity score DSS3 (SCaBER): 4.44
drug sensitivity score DSS3 (UM-UC-6): 7.09
drug sensitivity score DSS3 (UM-UC-9): 0
drug sensitivity score DSS3 (UM-UC-17): 5.01
drug sensitivity score DSS3 (UM-UC-3): 3.14
drug sensitivity score DSS3 (UM-UC-1): 5.11

CC#C[C@]1(O)CC[C@H]2[C@@H]3CCC4=CC(=O)CCC4=C3[C@@H](c3ccc(N(C)C)cc3)C[C@@]21C [mifepristone] (max dose 10000 nM)
drug sensitivity score DSS3 (UM-UC-15): 0
drug sensitivity score DSS3 (T-24): 0
drug sensitivity score DSS3 5637: 0
drug sensitivity score DSS3 (TCCSUP): 0
drug sensitivity score DSS3 (BC8149): 0.000864
drug sensitivity score DSS3 (UM-UC-12): 0
drug sensitivity score DSS3 (UM-UC-14): 0
drug sensitivity score DSS3 (UM-UC-18): 0
drug sensitivity score DSS3 (SW780): 0
drug sensitivity score DSS3 (J82): 0
drug sensitivity score DSS3 (SCaBER): 0
drug sensitivity score DSS3 (UM-UC-6): 0
drug sensitivity score DSS3 (UM-UC-9): 0
drug sensitivity score DSS3 (UM-UC-17): 0
drug sensitivity score DSS3 (UM-UC-3): 0
drug sensitivity score DSS3 (UM-UC-1): 0

Cn1cc(-c2ccc3ncc(Cc4ccc5ncccc5c4)n3n2)cn1 [NVP-BVU972] (max dose 10000 nM)
drug sensitivity score DSS3 (UM-UC-15): 0
drug sensitivity score DSS3 (T-24): 0.0341
drug sensitivity score DSS3 5637: 0
drug sensitivity score DSS3 (TCCSUP): 0
drug sensitivity score DSS3 (UM-UC-5): 0
drug sensitivity score DSS3 (BC8149): 0
drug sensitivity score DSS3 (UM-UC-12): 0
drug sensitivity score DSS3 (UM-UC-14): 0
drug sensitivity score DSS3 (UM-UC-18): 0
drug sensitivity score DSS3 (SW780): 0
drug sensitivity score DSS3 (J82): 0
drug sensitivity score DSS3 (SCaBER): 0
drug sensitivity score DSS3 (UM-UC-6): 0
drug sensitivity score DSS3 (UM-UC-9): 0.151
drug sensitivity score DSS3 (UM-UC-3): 0
drug sensitivity score DSS3 (UM-UC-1): 0

Nc1ncnc2c1c(-c1ccc(Cl)cc1)nn2-c1cccc(-c2cnnn2Cc2cccc(-c3ccccc3)c2)c1 [KB SRC 4] (max dose 10000 nM)
drug sensitivity score DSS3 (UM-UC-15): 0.895
drug sensitivity score DSS3 (T-24): 0
drug sensitivity score DSS3 5637: 51
drug sensitivity score DSS3 (TCCSUP): 45
drug sensitivity score DSS3 (UM-UC-5): 0.0134
drug sensitivity score DSS3 (BC8149): 14.3
drug sensitivity score DSS3 (UM-UC-12): 0
drug sensitivity score DSS3 (UM-UC-14): 19.7
drug sensitivity score DSS3 (UM-UC-18): 34.4
drug sensitivity score DSS3 (J82): 7.94
drug sensitivity score DSS3 (SCaBER): 21.3
drug sensitivity score DSS3 (UM-UC-6): 6.66
drug sensitivity score DSS3 (UM-UC-9): 0
drug sensitivity score DSS3 (UM-UC-17): 34.3
drug sensitivity score DSS3 (UM-UC-3): 8.43
drug sensitivity score DSS3 (UM-UC-1): 22.9

Cc1ccc(C(=O)Nc2ccc(CN3CCN(C)CC3)c(C(F)(F)F)c2)cc1C#Cc1cnc2cccnn12 (max dose 10000 nM)
drug sensitivity score DSS3 (UM-UC-15): 0
drug sensitivity score DSS3 (T-24): 17.7
drug sensitivity score DSS3 5637: 8.34
drug sensitivity score DSS3 (TCCSUP): 23.2
drug sensitivity score DSS3 (UM-UC-5): 0
drug sensitivity score DSS3 (BC8149): 5.08
drug sensitivity score DSS3 (UM-UC-12): 10.3
drug sensitivity score DSS3 (UM-UC-14): 6.19
drug sensitivity score DSS3 (SW780): 0
drug sensitivity score DSS3 (J82): 6.34
drug sensitivity score DSS3 (SCaBER): 6.34
drug sensitivity score DSS3 (UM-UC-6): 2.51
drug sensitivity score DSS3 (UM-UC-9): 3.78
drug sensitivity score DSS3 (UM-UC-17): 0
drug sensitivity score DSS3 (UM-UC-3): 0
drug sensitivity score DSS3 (UM-UC-1): 3.27

CC(NC(=O)c1ccccc1/N=C/c1c(O)ccc2ccccc12)c1ccccc1 (stereo unspecified) [Sirtinol] (max dose 10000 nM)
drug sensitivity score DSS3 (UM-UC-15): 3.66
drug sensitivity score DSS3 (T-24): 0
drug sensitivity score DSS3 5637: 0
drug sensitivity score DSS3 (TCCSUP): 0
drug sensitivity score DSS3 (UM-UC-5): 0
drug sensitivity score DSS3 (BC8149): 0
drug sensitivity score DSS3 (UM-UC-12): 0
drug sensitivity score DSS3 (UM-UC-14): 0
drug sensitivity score DSS3 (UM-UC-18): 0
drug sensitivity score DSS3 (SW780): 0
drug sensitivity score DSS3 (J82): 0
drug sensitivity score DSS3 (SCaBER): 0
drug sensitivity score DSS3 (UM-UC-6): 0.252
drug sensitivity score DSS3 (UM-UC-9): 0
drug sensitivity score DSS3 (UM-UC-3): 0
drug sensitivity score DSS3 (UM-UC-1): 0

Cc1ccc(C(=O)N(CCCN)[C@@H](c2oc3cc(Cl)ccc3c(=O)c2Cc2ccccc2)C(C)C)cc1 (max dose 10000 nM)
drug sensitivity score DSS3 (UM-UC-15): 0.408
drug sensitivity score DSS3 (T-24): 0
drug sensitivity score DSS3 5637: 52.5
drug sensitivity score DSS3 (TCCSUP): 59.1
drug sensitivity score DSS3 (UM-UC-5): 1.25
drug sensitivity score DSS3 (BC8149): 0
drug sensitivity score DSS3 (UM-UC-12): 34.6
drug sensitivity score DSS3 (UM-UC-14): 59.5
drug sensitivity score DSS3 (UM-UC-18): 30.1
drug sensitivity score DSS3 (J82): 0
drug sensitivity score DSS3 (SCaBER): 0
drug sensitivity score DSS3 (UM-UC-6): 33.2
drug sensitivity score DSS3 (UM-UC-9): 11.2
drug sensitivity score DSS3 (UM-UC-17): 59.9
drug sensitivity score DSS3 (UM-UC-3): 30.8
drug sensitivity score DSS3 (UM-UC-1): 45.4
